Data reported in publication PMC7819943, “Rice protein-binding microarrays: a tool to detect cis-acting elements near promoter regions in rice”.
Some of the results follow.

The chains behind the UniProt entries cited, without tags or fusion partners.
UniProt Q0JBA9, entry or part of it: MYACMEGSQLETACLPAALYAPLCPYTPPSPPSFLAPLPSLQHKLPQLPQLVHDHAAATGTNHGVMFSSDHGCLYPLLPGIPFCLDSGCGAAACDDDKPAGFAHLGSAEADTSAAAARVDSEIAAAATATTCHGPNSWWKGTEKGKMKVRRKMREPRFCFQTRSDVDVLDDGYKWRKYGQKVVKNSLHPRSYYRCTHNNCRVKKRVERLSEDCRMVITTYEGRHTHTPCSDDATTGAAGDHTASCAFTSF

Each sequence was assayed against OsWRKY34 (Oryza sativa, UniProt Q0JBA9 1-250) (assay: protein-binding microarray (RPBM); PBS, 2% BSA, 51.3 ng/ul salmon testes DNA, 50 uM zinc acetate, 200 nM TF, 25 C, 1 h; high values mean tight binding). Details: protein: recombinant; tags: N-terminal polyhistidine and DsRed monomer fusion (pET32a); label: CyDye5-dUTP incorporated in the synthesized complementary strand; 3' TTTTT single-stranded linker to array surface; dsDNA, one strand shown.
Outline: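 Binding signal here means per-feature fluorescence intensity in arbitrary units. The values were read on an Axon 4000B scanner after a custom Agilent array, double-stranded by primer extension with Cy5-dUTP, was incubated with 200 nM protein at 25 °C for 1 h in PBS with 2% BSA, salmon testes DNA and 50 µM zinc acetate, then washed. The proteins were transcription factors with an N-terminal polyhistidine tag and DsRed, expressed in E. coli BL21-CodonPlus and purified on Ni–NTA.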

| Sequence | binding signal |
| --- | --- |
| TTGCCCGCGTCTCGTCGCCATCTTTGTACTACGCCAATGGCGGAGTCACCTAGTGCAG | 8180 fluorescence intensity (a.u.) |
| GCGCGGCGCGGCGGGACGGGGTGGGGCGAGGGCAGCAGCGCGGAGTCACCTAGTGCAG | 8520 fluorescence intensity (a.u.) |
| GGATTTTCTTCCGATCTCGCTTCCACCTCGCCGCCTCGCCCGGAGTCACCTAGTGCAG | 9120 fluorescence intensity (a.u.) |
| TATCCCTGTTGTGGCGCTGCTGCCCATGGTGACCTCCTGCCGGAGTCACCTAGTGCAG | 8350 fluorescence intensity (a.u.) |
| CTCTAACAGTCTGCTATTATATCTGCTCTCATGCGTCATCCGGAGTCACCTAGTGCAG | 11100 fluorescence intensity (a.u.) |
| CCACACTACACTGCCTCACATTTACTACACCTCTAGCTCCCGGAGTCACCTAGTGCAG | 8350 fluorescence intensity (a.u.) |
| AAATCTTTCCATTTCTTTTGGTTTCTTCAAAGATTTGTTTCGGAGTCACCTAGTGCAG | 8440 fluorescence intensity (a.u.) |
| CATGTCACATCGGATGTTTAGGCGCTAATTTAAAGTATTACGGAGTCACCTAGTGCAG | 8230 fluorescence intensity (a.u.) |
| GGTTGTGTGGCTAAACGTGGCTAAGTGTGTGTGTGTGCGTCGGAGTCACCTAGTGCAG | 9740 fluorescence intensity (a.u.) |
| GCATTATTGGGACCTATATATCTTCTTTGCCACGTACAGTCGGAGTCACCTAGTGCAG | 11900 fluorescence intensity (a.u.) |
| AGTCTTTTTTTTTGCTTCTTCTTCTTAAACAGATTCTTTTCGGAGTCACCTAGTGCAG | 8250 fluorescence intensity (a.u.) |
| ATCTATTTTGCCACTTATTAGGCGTTTAACTATTTACGACCGGAGTCACCTAGTGCAG | 9090 fluorescence intensity (a.u.) |
| GAGACAGTGTACCGGCCATTTGCCAGATTTGCTTCCTCAGCGGAGTCACCTAGTGCAG | 8650 fluorescence intensity (a.u.) |
| GCCAGGCCGTGCCAGTCCACTTGCTGCACCATTGGTCTAGCGGAGTCACCTAGTGCAG | 8160 fluorescence intensity (a.u.) |
| ACGTGACAACCGTTGCCTACTCATCTGACAGCATTATCCGCGGAGTCACCTAGTGCAG | 8560 fluorescence intensity (a.u.) |
| CACGGTTGTCCGGTTGACCATCACTCTGTCCAGCGCGTCTCGGAGTCACCTAGTGCAG | 11000 fluorescence intensity (a.u.) |
| AGCGGCAGGAAGTAGTCTCTGTTTTGTTTTGCTCTTCTGCCGGAGTCACCTAGTGCAG | 10700 fluorescence intensity (a.u.) |
| CCATTTAGATTGGTGCCATTTTAAACTATATCTTTTTCTTCGGAGTCACCTAGTGCAG | 8220 fluorescence intensity (a.u.) |
| TTCATATTTCACTAATGCACCTTTTGCCAGTGGCCCATCACGGAGTCACCTAGTGCAG | 11100 fluorescence intensity (a.u.) |
| ACATATGTCTAGATTCGTTCTACTATGAAATATTTCATCTCGGAGTCACCTAGTGCAG | 8260 fluorescence intensity (a.u.) |
| CATATATTTTTTCTATGTTTTGTAATTCTTTGTTTTTACACGGAGTCACCTAGTGCAG | 9840 fluorescence intensity (a.u.) |

Reformatted bar-delimited: part of the list above
Sequence | binding signal
CATGTCACATCGGATGTTTAGGCGCTAATTTAAAGTATTACGGAGTCACCTAGTGCAG | 8230 fluorescence intensity (a.u.)
AGCGGCAGGAAGTAGTCTCTGTTTTGTTTTGCTCTTCTGCCGGAGTCACCTAGTGCAG | 10700 fluorescence intensity (a.u.)

(next part)

| Sequence | binding signal |
| --- | --- |
| ACCATTCCTTTATTATCCACTGTAATTAAAATCGGTATGTCGGAGTCACCTAGTGCAG | 9380 fluorescence intensity (a.u.) |
| TCTCCTACTTCCGCGCGCAAATCGTGGATCGCCGATTCCACGGAGTCACCTAGTGCAG | 9150 fluorescence intensity (a.u.) |
| GCTATCCGCCGCAGCTCGGCCGTCTCCCAGCGCCGTCGCACGGAGTCACCTAGTGCAG | 8200 fluorescence intensity (a.u.) |
| AGTTTCAGCAGTTGTCAAATTTAAGATTCACATGATGTGTCGGAGTCACCTAGTGCAG | 8600 fluorescence intensity (a.u.) |
| GCTTTTCTTTGCTAGTGGGCTATCTCTTGCTCCAAACTTCCGGAGTCACCTAGTGCAG | 8120 fluorescence intensity (a.u.) |
| ATATATTAATGTGCAATCTTTTTACGTGTTCGCGAAAAAACGGAGTCACCTAGTGCAG | 9610 fluorescence intensity (a.u.) |
| CGCATGCCCGATCGTTTTTCTGTGCGACGCGCGGTCACCGCGGAGTCACCTAGTGCAG | 10600 fluorescence intensity (a.u.) |
| TAGCCTATTTCTTATACCATATCTCTATCCCGTGAAATTCCGGAGTCACCTAGTGCAG | 10100 fluorescence intensity (a.u.) |
| CTATATACGTATTTGCCTCGAGCATCTACGCGCGTATATACGGAGTCACCTAGTGCAG | 11600 fluorescence intensity (a.u.) |
| TAGCACATGTTTGACCGTTCGTCTTATTCAAATTTTTTTTCGGAGTCACCTAGTGCAG | 13000 fluorescence intensity (a.u.) |
| TTTTTTAGGCTCCTTATTGTCATTATCACTTAGCATCATTCGGAGTCACCTAGTGCAG | 8120 fluorescence intensity (a.u.) |
| TTGGGGCGCTTTTTTTCTTTTGGGTTCTCTTTGACAGGACCGGAGTCACCTAGTGCAG | 12000 fluorescence intensity (a.u.) |
| CACCGCCGAAAGAGGAGGAGGGGAGGGGAGGGCCGACGGGCGGAGTCACCTAGTGCAG | 11200 fluorescence intensity (a.u.) |
| GAGGAGGTAGGTATGCTTTAATATCCACTGCTGTTTCTTTCGGAGTCACCTAGTGCAG | 9170 fluorescence intensity (a.u.) |
| ACACCCGCCGCCACGTCACTCCACGCCGCACCCACCCACTCGGAGTCACCTAGTGCAG | 10400 fluorescence intensity (a.u.) |
| AAAATAACTTACGGGGTGGAATGTCAAACTTCAAGTGACTCGGAGTCACCTAGTGCAG | 8470 fluorescence intensity (a.u.) |
| CCACCTAAAAGCCCACCACATCCATCCATCTTGCTTGCCACGGAGTCACCTAGTGCAG | 8390 fluorescence intensity (a.u.) |
| TTACTATTTAGCGCATATTTATTCATAGCATGCACCTTTTCGGAGTCACCTAGTGCAG | 8820 fluorescence intensity (a.u.) |
| CCATCCGTCTCCATCCAACACCTCCCCGTGCTCGCACCCACGGAGTCACCTAGTGCAG | 10500 fluorescence intensity (a.u.) |
| AATCAGTTGGGCGGGTGGGGTGCCTTCCAGCCAGATGCCCCGGAGTCACCTAGTGCAG | 8080 fluorescence intensity (a.u.) |
| AGGTTATTAATTCACATATCCTAAGGTTGTGTTTAGTTCACGGAGTCACCTAGTGCAG | 8200 fluorescence intensity (a.u.) |
